Values joined by “and” are separate entries in the source; they are usually repeats but may differ in a detail not shown here. Identical values can stand only once. The whole screen tested about 400,000 compounds, of which about 5,500 (1.4%) were called active. The inconclusive results got no clear call from the source; some entries with a clear call stand among them for comparison. Calls come from the whole dose curve; as a rule, active = well fitted cell-killing curve with a large enough effect; inconclusive = small, poorly fitted or top-dose-only effect, or effect the other way; inactive = flat fitted curve, though single readings scatter. Where the call is inconclusive, the potency comes from a doubtful curve fit.
Test: qHTS assay for MDR1-selective chemotherapeutics: Primary screen using the parental adenocarcinoma cell KB-3-1; note: nearly all actives have a fitted effect of over 60% in size
Conditions: KB-3-1 viability, CellTiter-Glo ATP luminescence, 72 h; activity change, negative = cytotoxic: at 46.1 µM (top of the series)
How it was run: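 Multi-concentration cytotoxicity screen in KB-3-1 cells grown in DMEM lacking phenol red with 10% FBS. After 72 h at 37 °C with compound, ATP-dependent luminescence was recorded.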
For c1ccc(CN2CCC(Nc3nc(-c4cccnc4)nc4ccccc34)CC2)cc1, the Potency was inconclusive: 29.1 µM [cytotoxic, single point].
With CC1CCC(C(O)(C(=O)c2ccccc2)c2ccccc2)C(=O)C1 (stereo unspecified) the Potency was inconclusive: 23.1 µM [cytotoxic, single point].
For COc1ccc(CCNC(=O)C(=O)NCC(c2cccs2)S(=O)(=O)c2ccc(F)cc2)cc1 (stereo unspecified), the Potency was inconclusive: 29.1 µM [cytotoxic, single point].
In the case of CS(=O)(=O)Nc1ccc(C(=O)CC(=O)Nc2ccc([N+](=O)[O-])cc2)cc1, the Potency was inconclusive: 32.6 µM [rising, single point].
With COc1ccc(-c2nn(-c3ccccc3)cc2C(=O)Nc2cccc(C(=O)O)c2)cc1[N+](=O)[O-] the activity change, negative = cytotoxic was inconclusive: -26.2%.
With Cc1cccc(NC(=O)c2ccc(OCc3c(C)noc3C)cc2)c1 the Potency was inconclusive: 10.3 µM [cytotoxic, partial curve].
For O=C(/C=C/c1ccccc1)Nc1cccc(C(=O)NCCCCc2ccccc2)c1, the “activity change, negative = cytotoxic” value was inactive: 0%.
For COC(=O)[C@@]1(Cc2ccc(OC)cc2)[C@H]2c3cc(C(=O)N4CCCC4)n(Cc4ccccc4)c3C[C@H]2CN1C(=O)c1ccccc1, the Potency was inconclusive: 18.4 µM [cytotoxic, single point].
In the case of CN1C(=S)N(c2cccnc2)C(=O)/C1=C\c1ccc(N(C)C)cc1, the “activity change, negative = cytotoxic” value was inactive: 0%.
With CC(C)(C)OC(=O)NCCCC[C@H](NC(=O)c1[nH]cnc1C(=O)Nc1ccc(Cl)cc1)C(=O)OC(C)(C)C the Potency was inconclusive: 20.6 µM [cytotoxic, single point].
With O=C(O)[C@H]1CC=C[C@H]2CCN(Cc3ccc(Cl)c(Cl)c3)C(=O)[C@@H]12 the Potency was inconclusive: 0.206 µM [rising, full curve].
In the case of CC(C)c1ccc(Nc2c(-c3ccccn3)nc3ccccn23)cc1, the Potency was inconclusive: 29.1 µM [cytotoxic, single point].
For CC(=O)Nc1ccc(SCCN2CC[C@@H](C(C)(C)C)CCC2=O)cc1, the Potency was inconclusive: 29.1 µM [cytotoxic, single point].
In the case of O=C(CN1CCCC1)Nc1ccc(-c2nc3cc(NC(=O)CN4CCCC4)ccc3o2)cc1, the Potency was inconclusive: 18.4 µM [cytotoxic, single point].
In the case of CCCCn1c(Oc2ccc(C(=O)OC)cc2)nc2c1c(=O)n(C)c(=O)n2C, the “activity change, negative = cytotoxic” value was inactive: -13%.
For Cc1ccc(-c2cn(-c3ccccc3)c3[n+]2CCCS3)cc1, the Potency was active: 1.84 µM and inconclusive: 18.4 µM [cytotoxic, single point].
In the case of COC(=O)c1ccccc1-c1ccc(/C=N/NC(N)=O)o1, the Potency was active: 14.6 µM.
In the case of CC(=O)c1c(C)[nH]c(C(=O)OCC(=O)Nc2cccnc2Cl)c1C, the Potency was inconclusive: 18.4 µM [cytotoxic, single point].
With Cc1c(C(=O)NCc2cccnc2)oc2ccc(S(=O)(=O)N3CCCC(C)C3)cc12 (stereo unspecified) the Potency was inconclusive: 25.9 µM [cytotoxic, single point].
With CN1CCN(CC(O)COc2ccc(C34CC5CC(CC(C5)C3)C4)cc2)CC1 (stereo unspecified) the Potency was inconclusive: 29.1 µM [cytotoxic, single point].
For CCc1ccc(N(CC)C(=O)c2ccc3c(Cl)c4c(nc3c2)CCC4)cc1, the Potency was inconclusive: 20.6 µM [cytotoxic, single point].
With CCOC(=O)C1CCN(c2ncnc3c2[nH]c2cccc(OC)c23)CC1 the “activity change, negative = cytotoxic” value was inactive: -1.59%.
In the case of CC/C(=N\NC(=O)c1cccnc1)c1ccc2c(c1)OCCO2, the “activity change, negative = cytotoxic” value was inactive: 9.4%.
For Cn1nc(CC(=O)NCc2cccc3ccccc23)c2ccccc2c1=O, the Potency was inconclusive: 20.6 µM [cytotoxic, single point].
In the case of CC1=CC(C)(C)n2c(O)c(N=N)c3c(C)ccc1c32, the “activity change, negative = cytotoxic” value was inactive: -1.19%.
For COc1ccccc1NC(=O)CN(c1ccccc1OC)S(=O)(=O)c1ccccc1, the Potency was inconclusive: 13 µM [cytotoxic, partial curve].
For Nc1nc(N)c2c(ccc3c2ccn3Cc2cccc([N+](=O)[O-])c2)n1, the Potency was active: 0.58 µM.
For O=C(Nc1cccc(S(=O)(=O)N2CCOCC2)c1)c1cc(S(=O)(=O)N2CCOCC2)c(Cl)cc1Cl, the Potency was inconclusive: 23.1 µM [cytotoxic, single point].
In the case of CN(C(=O)C(C)(C)C)C1c2c(ccc3ccccc23)OCC1CO (stereo unspecified), the “activity change, negative = cytotoxic” value was inactive: 6.94%.
With COc1ccc(NS(=O)(=O)c2cc(NC(=O)c3ccco3)ccc2N2CCCCC2)cc1 the Potency was active: 20.6 µM.
In the case of CCC(C)NC(=O)CN(c1ccc(OC)cc1)S(=O)(=O)c1ccccc1 (stereo unspecified), the Potency was inconclusive: 23.1 µM [rising, partial curve, poor fit].
In the case of Cc1ccc(NC2=CC(=O)CC(c3ccco3)C2)c(N)c1 (stereo unspecified), the “activity change, negative = cytotoxic” value was inactive: -22.4%.
In the case of COC1=CC(=O)C=C(OC)C1=O, the Potency was inconclusive: 29.1 µM [cytotoxic, single point].
In the case of CC(=O)Nc1ccccc1NS(=O)(=O)c1ccc(Cl)cc1, the Potency was inconclusive: 11.6 µM [cytotoxic, partial curve].
For COc1ccccc1CNC(=O)CCCCn1c(=O)c2ccccc2n(Cc2ccccc2F)c1=O, the “activity change, negative = cytotoxic” value was inactive: 2.83%.
In the case of Oc1c(CN2CCOCC2)cc(COCc2ccccc2)c2cccnc12, the Potency was inconclusive: 3.66 µM [cytotoxic, full curve, poor fit].
In the case of CCN1CCN(Cc2ccc(NC(=O)c3ccc(C)c(NC(=O)c4c[nH]c5cc(C(F)(F)F)ccc5c4=O)c3)cc2C(F)(F)F)CC1, the Potency was active: 18.4 µM and active: 2.31 µM.
In the case of O=C(c1ccc(Cl)c(S(=O)(=O)N2CCCC2)c1)N1CCN(c2ccccc2F)CC1, the Potency was inconclusive: 20.6 µM [cytotoxic, single point].
For CCOC(=O)c1cc(-c2ccc(C)cc2)n(CCC(=O)NC(C)CC)c1C (stereo unspecified), the Potency was inconclusive: 2.91 µM [cytotoxic, full curve].
In the case of Cc1ccccc1NC1=NC2(CCCC2)N=C(N)N1, the Potency was inconclusive: 29.1 µM [cytotoxic, single point].
In the case of Cc1cccc(-c2nc3c(cnn3-c3ccccc3)c(=O)n2-c2ccc(Cl)cc2)c1, the Potency was inconclusive: 10.3 µM [cytotoxic, partial curve, poor fit].

From PubChem BioAssay AID1347075 (National Center for Advancing Translational Sciences (NCATS), 2019)
% is set by controls: 0 for no effect and ±100 for the full control effect; potency is the fitted concentration of half-maximal effect.
